Assay results taken from paper PMC6925134.

By UniProt entry, the sequences of proteins in these tests, tags left out.
UniProt P08670: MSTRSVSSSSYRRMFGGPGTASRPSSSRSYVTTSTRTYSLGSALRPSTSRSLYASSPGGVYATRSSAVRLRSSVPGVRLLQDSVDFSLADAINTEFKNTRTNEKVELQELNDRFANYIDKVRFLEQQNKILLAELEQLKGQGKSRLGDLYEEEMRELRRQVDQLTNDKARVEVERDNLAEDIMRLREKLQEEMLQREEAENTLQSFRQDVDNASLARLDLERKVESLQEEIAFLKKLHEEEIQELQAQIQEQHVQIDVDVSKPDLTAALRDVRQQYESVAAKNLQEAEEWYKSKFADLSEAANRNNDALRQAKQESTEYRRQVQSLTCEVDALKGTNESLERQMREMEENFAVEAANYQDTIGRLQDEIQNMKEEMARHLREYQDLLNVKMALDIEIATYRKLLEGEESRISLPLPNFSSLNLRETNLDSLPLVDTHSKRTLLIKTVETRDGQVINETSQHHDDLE

Molecular target: T1, RNF208 overexpressed in TNBC cells (crosslinking assay) (human) (UniProt Q9H0X6)
T1 sequence: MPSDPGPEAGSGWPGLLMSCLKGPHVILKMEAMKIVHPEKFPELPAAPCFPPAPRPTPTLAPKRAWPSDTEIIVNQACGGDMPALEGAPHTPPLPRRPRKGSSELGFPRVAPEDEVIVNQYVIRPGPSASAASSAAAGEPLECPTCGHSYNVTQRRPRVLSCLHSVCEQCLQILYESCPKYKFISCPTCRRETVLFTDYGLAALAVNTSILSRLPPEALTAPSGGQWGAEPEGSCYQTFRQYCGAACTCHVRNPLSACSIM
Test: cross-linking + affinity purification with mass spectrometry; RNF208-overexpressing cells fixed in 1% formaldehyde in PBS; eluted proteins separated by SDS-PAGE, Coomassie stained, analysed by mass spectrometry

binding: binds
Substance: Vimentin, endogenous in TNBC cells (from UniProt P08670 1-466)

Results are given in words; binding and its absence hold for the method and conditions named. Binding seen in cells or lysates may run through a third protein. Here binding means that the protein was enriched with, or labelled near, the bait; the list need not be complete.
